Some test systems named below: Ropporin-1B (human); S100A14 (human); S100A2 (human).
Common to all, as to experiment: protein microarray (ProtoArray v5.0), streptavidin-Alexa Fluor 647
Common to all, as to details: 3'-biotin; 20 mM Tris (pH 7.5), 5 mM MgCl2, 100 mM KCl, 0.1% Tween-20, A/T-rich and random oligonucleotide blockers; temperature not stated; high values mean tight binding

Experiment [1] has as its system Regulator of G-protein signaling 8 (human).
Experiment [2] concerns Retinoid-binding protein 7 (human).
The subject of experiment [3] is Retinol-binding protein 1 (human).
Experiment [4] deals with Rho GTPase-activating protein 12 (human).
In experiment [5] the test system is Rho GTPase-activating protein 15 (human).
Experiment [6] concerns Rho GTPase-activating protein 29 (human).
The test system of experiment [7] is Ropporin-1-like protein (human).

This is one part of the list.

On to “GGTGACAGGGGTATGGGGAGGGG [G4-2 biotinylated (Ct1)]”, for which the binding signal is 4.59 z-score in [1]; -0.388 z-score in experiment [2]; -0.387 z-score in experiment [3]; 4.46 z-score in [4]; 3.87 z-score in experiment [5]; -0.367 z-score in experiment [6]. Also, the binding signal in experiment [7] was -0.38 z-score; with Ropporin-1B (human) it was -0.405 z-score; with S100A14 (human) it was -0.398 z-score; with S100A2 (human) it was -0.378 z-score.

Values taken from publication PMC5996148.
